Assay results reported in the supplement of paper PMC12823440, “Inhibitors supercharge kinase turnover through native proteolytic circuits” (Nature, 2025).
Counter-ions that a name gives are not always drawn. The list shows a part of the results. Hit calls seldom repeat between salt and free forms of one compound.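 Kinases, fused to nanoluciferase, were expressed in K562 cells; luminescence was measured every 4 h from 2 to 18 h as percent of control (DMSO = 100%, positive control = 0%). A time point is decreased if signal falls significantly (2 sigma). Hits were called by the authors by a rule that is not shown; the count of time points alone does not decide it.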

Amino acid sequences for entries named in this document (tags omitted). A change or cut given only in a name is not applied to a line headed by its entry.
UniProt Q8IWU2: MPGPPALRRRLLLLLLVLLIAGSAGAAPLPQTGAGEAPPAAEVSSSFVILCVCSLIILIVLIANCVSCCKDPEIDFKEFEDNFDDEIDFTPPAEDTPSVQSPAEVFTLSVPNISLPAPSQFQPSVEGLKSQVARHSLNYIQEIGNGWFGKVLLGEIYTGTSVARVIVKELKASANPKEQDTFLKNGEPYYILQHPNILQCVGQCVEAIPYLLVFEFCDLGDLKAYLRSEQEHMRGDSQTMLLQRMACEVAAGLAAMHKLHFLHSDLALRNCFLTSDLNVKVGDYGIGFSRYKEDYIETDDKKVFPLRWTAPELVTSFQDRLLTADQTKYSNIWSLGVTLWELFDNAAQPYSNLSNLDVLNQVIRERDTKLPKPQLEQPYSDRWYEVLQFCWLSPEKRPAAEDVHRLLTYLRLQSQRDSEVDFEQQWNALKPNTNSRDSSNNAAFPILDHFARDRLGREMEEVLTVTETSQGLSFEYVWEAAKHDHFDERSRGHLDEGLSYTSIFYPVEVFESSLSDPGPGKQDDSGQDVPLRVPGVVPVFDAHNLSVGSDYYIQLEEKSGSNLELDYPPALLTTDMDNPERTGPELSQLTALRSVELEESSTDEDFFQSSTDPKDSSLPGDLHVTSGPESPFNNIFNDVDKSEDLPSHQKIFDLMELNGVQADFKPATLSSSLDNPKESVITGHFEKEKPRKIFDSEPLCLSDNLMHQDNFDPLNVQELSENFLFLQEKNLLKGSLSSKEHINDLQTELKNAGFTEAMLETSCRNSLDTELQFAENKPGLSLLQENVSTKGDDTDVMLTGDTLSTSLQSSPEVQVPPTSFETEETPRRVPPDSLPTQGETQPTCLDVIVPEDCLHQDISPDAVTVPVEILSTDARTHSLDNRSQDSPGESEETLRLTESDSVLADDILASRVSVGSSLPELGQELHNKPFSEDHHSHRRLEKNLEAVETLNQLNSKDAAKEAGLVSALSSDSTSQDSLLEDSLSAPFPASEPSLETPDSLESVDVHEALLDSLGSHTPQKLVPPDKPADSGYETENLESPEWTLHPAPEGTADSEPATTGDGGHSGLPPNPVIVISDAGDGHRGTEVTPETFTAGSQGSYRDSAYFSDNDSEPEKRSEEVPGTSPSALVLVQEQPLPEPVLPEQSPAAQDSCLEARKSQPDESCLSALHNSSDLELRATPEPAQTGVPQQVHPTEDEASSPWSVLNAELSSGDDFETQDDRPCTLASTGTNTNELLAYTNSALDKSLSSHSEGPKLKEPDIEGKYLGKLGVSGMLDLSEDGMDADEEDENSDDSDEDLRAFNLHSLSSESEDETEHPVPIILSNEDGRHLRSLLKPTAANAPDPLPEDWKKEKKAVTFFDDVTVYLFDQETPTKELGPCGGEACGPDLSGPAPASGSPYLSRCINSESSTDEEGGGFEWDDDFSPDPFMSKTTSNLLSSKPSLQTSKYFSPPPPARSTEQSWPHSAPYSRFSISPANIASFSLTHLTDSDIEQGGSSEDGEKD
UniProt P07948: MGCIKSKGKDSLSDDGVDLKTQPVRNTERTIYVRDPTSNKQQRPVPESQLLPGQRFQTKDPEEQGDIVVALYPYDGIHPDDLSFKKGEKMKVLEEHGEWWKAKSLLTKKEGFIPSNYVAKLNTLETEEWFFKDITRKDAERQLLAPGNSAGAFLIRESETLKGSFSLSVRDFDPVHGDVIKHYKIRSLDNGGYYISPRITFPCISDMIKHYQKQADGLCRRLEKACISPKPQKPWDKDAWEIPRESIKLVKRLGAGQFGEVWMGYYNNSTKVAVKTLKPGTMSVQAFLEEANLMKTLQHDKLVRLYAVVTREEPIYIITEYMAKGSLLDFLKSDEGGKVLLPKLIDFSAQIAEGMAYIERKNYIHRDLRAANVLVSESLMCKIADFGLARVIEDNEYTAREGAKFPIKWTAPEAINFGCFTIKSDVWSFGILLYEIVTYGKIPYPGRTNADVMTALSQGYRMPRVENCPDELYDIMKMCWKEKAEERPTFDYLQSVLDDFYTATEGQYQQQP
UniProt Q12851: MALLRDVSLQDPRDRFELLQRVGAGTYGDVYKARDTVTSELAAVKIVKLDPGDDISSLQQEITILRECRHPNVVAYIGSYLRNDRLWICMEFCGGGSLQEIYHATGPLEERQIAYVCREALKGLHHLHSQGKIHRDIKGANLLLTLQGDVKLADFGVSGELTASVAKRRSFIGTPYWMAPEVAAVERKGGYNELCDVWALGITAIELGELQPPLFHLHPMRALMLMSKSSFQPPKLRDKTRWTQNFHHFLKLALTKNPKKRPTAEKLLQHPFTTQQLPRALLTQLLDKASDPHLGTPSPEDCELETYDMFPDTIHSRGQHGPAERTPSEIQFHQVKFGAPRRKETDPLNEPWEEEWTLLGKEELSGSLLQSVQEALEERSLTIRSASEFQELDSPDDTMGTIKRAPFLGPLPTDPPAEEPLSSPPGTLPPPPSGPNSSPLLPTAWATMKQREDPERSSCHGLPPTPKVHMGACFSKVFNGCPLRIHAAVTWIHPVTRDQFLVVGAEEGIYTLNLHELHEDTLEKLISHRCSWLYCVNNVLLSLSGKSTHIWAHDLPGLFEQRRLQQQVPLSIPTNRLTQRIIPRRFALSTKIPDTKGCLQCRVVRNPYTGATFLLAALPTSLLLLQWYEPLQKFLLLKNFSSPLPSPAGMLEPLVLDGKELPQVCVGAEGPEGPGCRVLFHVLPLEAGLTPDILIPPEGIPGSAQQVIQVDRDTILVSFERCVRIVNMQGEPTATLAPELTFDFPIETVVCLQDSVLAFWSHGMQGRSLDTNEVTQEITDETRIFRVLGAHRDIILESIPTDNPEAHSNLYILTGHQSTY
UniProt P28482, whole entry: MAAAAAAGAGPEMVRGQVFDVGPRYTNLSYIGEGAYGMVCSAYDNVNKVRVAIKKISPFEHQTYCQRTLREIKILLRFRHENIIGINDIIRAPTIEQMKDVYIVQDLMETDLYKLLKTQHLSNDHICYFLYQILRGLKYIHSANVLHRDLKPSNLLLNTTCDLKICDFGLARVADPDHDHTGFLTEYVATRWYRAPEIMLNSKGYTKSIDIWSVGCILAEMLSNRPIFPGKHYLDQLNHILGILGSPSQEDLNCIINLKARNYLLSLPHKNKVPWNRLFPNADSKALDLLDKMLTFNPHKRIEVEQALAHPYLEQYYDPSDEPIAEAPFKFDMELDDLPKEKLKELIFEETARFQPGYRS
UniProt P31152, whole entry: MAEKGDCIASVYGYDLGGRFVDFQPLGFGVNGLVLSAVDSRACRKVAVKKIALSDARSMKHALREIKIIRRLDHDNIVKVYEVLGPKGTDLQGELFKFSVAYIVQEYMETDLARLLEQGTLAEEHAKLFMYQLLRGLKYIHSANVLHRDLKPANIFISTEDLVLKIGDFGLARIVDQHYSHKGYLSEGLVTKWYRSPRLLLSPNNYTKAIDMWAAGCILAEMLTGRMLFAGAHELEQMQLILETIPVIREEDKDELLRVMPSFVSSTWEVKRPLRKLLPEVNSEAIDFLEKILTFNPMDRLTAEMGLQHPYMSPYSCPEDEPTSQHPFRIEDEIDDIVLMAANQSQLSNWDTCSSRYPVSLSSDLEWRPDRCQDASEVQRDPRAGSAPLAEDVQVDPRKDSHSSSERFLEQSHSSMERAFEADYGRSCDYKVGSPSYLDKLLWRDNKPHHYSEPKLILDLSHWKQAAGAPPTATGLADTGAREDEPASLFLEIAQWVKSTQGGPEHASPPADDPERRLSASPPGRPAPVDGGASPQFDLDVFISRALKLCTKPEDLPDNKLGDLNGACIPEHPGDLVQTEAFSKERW
UniProt P49137, whole entry, looked up: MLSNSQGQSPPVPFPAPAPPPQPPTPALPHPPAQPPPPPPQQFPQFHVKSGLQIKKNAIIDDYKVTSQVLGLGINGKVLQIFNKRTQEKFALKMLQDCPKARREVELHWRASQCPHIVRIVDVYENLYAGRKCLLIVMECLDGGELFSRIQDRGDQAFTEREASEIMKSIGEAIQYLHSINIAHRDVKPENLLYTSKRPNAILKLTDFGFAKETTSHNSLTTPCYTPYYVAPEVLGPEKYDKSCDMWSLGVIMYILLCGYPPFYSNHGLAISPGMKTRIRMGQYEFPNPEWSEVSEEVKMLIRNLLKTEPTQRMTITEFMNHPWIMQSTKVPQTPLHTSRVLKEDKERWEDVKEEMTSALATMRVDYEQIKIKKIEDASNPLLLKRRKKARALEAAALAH
UniProt Q9BUB5: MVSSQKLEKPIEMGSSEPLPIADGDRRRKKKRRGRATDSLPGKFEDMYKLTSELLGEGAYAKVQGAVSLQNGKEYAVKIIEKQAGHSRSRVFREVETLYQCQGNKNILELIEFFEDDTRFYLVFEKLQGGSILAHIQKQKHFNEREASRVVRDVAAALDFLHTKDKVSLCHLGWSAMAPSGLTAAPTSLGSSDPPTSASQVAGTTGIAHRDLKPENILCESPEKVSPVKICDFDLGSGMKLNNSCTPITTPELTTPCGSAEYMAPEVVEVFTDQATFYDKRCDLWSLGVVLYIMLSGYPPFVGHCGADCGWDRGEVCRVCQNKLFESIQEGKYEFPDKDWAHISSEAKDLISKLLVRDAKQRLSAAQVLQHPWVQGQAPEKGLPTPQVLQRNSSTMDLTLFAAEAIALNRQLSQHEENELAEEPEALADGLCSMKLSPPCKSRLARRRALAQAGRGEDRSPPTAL
UniProt Q16620, whole entry, looked up: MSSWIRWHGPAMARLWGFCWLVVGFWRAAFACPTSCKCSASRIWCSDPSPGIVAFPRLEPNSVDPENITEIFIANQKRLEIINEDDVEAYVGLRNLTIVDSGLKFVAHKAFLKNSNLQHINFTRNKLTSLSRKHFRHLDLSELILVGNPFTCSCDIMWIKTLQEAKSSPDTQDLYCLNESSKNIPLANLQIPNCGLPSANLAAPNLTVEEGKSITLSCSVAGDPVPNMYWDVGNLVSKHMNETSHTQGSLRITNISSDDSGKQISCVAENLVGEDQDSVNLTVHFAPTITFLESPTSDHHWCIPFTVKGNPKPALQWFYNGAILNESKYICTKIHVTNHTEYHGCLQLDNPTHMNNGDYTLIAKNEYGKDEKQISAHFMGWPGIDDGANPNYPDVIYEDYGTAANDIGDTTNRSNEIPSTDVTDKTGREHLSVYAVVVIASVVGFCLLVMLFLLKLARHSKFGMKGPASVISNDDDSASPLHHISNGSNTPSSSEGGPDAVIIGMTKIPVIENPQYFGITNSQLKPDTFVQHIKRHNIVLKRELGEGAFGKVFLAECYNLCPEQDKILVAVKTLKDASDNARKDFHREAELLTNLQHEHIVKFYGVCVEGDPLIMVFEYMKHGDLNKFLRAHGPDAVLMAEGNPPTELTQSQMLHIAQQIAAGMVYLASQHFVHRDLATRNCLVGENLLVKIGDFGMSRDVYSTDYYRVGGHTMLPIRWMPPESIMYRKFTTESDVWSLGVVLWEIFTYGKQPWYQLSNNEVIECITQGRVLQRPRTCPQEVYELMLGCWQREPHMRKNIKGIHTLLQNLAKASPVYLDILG

Tests used:
Assay in all cases: number of time points (of 5) at which kinase-Nluc abundance scored as decreased, DMSO-normalised (count); higher = more persistent destabilization
Settings in all cases: K562; 2-18 h
LMTK2 = LMTK2 (UniProt Q8IWU2)
LYN = LYN (UniProt P07948)
MAP2K1 = MAP2K1 (UniProt Q02750)
MAP2K2 = MAP2K2 (UniProt P36507)
MAP4K2 = MAP4K2 (UniProt Q12851)
MAPK1 = MAPK1 (UniProt P28482)
MAPK4 = MAPK4 (UniProt P31152)
MAPKAPK2 = MAPKAPK2 (UniProt P49137)
MKNK1 = MKNK1 (UniProt Q9BUB5)
NTRK2 = NTRK2 (UniProt Q16620)

| SMILES | number of time points (LMTK2) | number of time points (LYN) | number of time points (MAP2K1) | number of time points (MAP2K2) | number of time points (MAP4K2) | number of time points (MAPK1) | number of time points (MAPK4) | number of time points (MAPKAPK2) | number of time points (MKNK1) | number of time points (NTRK2) |
| --- | --- | --- | --- | --- | --- | --- | --- | --- | --- | --- |
| C=CC(=O)Nc1cccc(Nc2nc(Nc3ccc(OCCOC)cc3)ncc2F)c1 [Spebrutinib] (10 µM) | 0 | 0 | 0 | 0 | 0 | 0 | 0 | 0 | 0 | 0 |
| CC(C)CC(=O)Nc1n[nH]c2c1CN(C(=O)C1CCN(C)CC1)C2(C)C (2.5 µM) | 2 | 0 | 0 | 0 | 0 | 0 | 0 | 0 | 0 | 3 |
| CNC(=O)c1cccc2cc(Oc3ccnc4cc(OCC5(N)CC5)c(OC)cc34)ccc12 [Lucitanib] (10 µM) | 0 | 0 | 0 | 0 | 0 | 0 | 0 | 0 | 0 | 0 |
| O=C1Nc2ccccc2/C1=C/c1ccc(F)cc1 (10 µM) | 0 | 0 | 0 | 0 | 0 | 0 | 0 | 0 | 0 | 0 |
| Cc1ccc(NC(=O)c2cccc(N(C)C)c2)cc1NC(=O)c1ccc(O)cc1 (10 µM) | 0 | 0 | 0 | 0 | 0 | 0 | 0 | 0 | 0 | 0 |
| CC(C)C(=O)Nc1ncc(-c2cc(C(F)F)nn2-c2c(Cl)cccc2Cl)s1 (10 µM) | 0 | 0 | 0 | 0 | 0 | 0 | 0 | 0 | 0 | 0 |
| COc1cc2ncn(-c3cc(OCc4ccccc4C(F)(F)F)c(C(N)=O)s3)c2cc1OC (10 µM) | 0 | 0 | 0 | 0 | 0 | 0 | 0 | 0 | 0 | 0 |
| Cc1ccc(F)c(NC(=O)Nc2ccc(-c3cccc4[nH]nc(N)c34)cc2)c1 [Linifanib] (2.5 µM) | 0 | 5 | 0 | 0 | 0 | 0 | 0 | 0 | 0 | 0 |
| Nc1nc(N)c(N=O)c(OCC2CCCCC2)n1 (10 µM) | 0 | 0 | 0 | 0 | 0 | 0 | 0 | 0 | 0 | 0 |
| CN(C)Cc1ccc(-c2cnn3c(-c4cccc(NC(=O)c5cccc(C(F)(F)F)c5)c4)ccnc23)cc1 (2.5 µM) | 0 | 0 | 0 | 0 | 0 | 0 | 0 | 0 | 0 | 0 |
| CC(C)Oc1cc(Nc2nc(N[C@@H](C)c3ccc(F)cn3)ncc2Cl)n[nH]1 (10 µM) | 0 | 0 | 0 | 0 | 0 | 0 | 0 | 0 | 0 | 0 |
| CC(C)(C)c1cc(NC(=O)Nc2ccc(-c3cn4c(n3)sc3cc(OCCN5CCOCC5)ccc34)cc2)no1 [Quizartinib] (10 µM) | 0 | 2 | 0 | 0 | 2 | 0 | 2 | 0 | 0 |  |
| CCN1CCN(c2ccc(Nc3cc(N(C)C(=O)Nc4c(Cl)c(OC)cc(OC)c4Cl)ncn3)cc2)CC1 [Infigratinib] (10 µM) | 0 | 0 | 0 | 0 | 0 | 0 | 0 | 0 | 0 | 0 |
| CCn1cc(-c2ccnc3[nH]c(-c4cccc(CN(C)C)c4)cc23)c(-c2ccc(NC(=O)N(C)C)cc2)n1 (2.5 µM) | 0 | 0 | 0 | 0 | 0 | 0 | 0 | 0 | 0 | 0 |
| CN1CCN(C(=O)c2ccc(-c3ccc4c(C=O)c(O)ccc4c3)s2)CC1 (2.5 µM) | 0 | 0 | 0 | 0 | 0 | 0 | 0 | 0 | 0 | 0 |
| COc1cc(OC)cc(-c2cc3cnc(N)nc3nc2NC(=O)NC(C)(C)C)c1 (10 µM) | 0 | 0 | 0 | 0 | 0 | 0 | 0 | 0 | 0 | 0 |
| Cc1cc(CS(=O)(=O)c2ccccc2)cc(OCc2ccc(CN3CCC[C@@H]3CO)cc2)c1 [PF-543 (Citrate)] (10 µM) | 0 | 0 | 0 | 0 | 0 | 0 | 0 | 0 | 0 | 0 |
| O=c1cc(N2CCOCC2)oc2c(-c3ccccc3)cccc12 (10 µM) | 0 | 0 | 0 | 0 | 0 | 0 | 0 | 0 | 0 | 0 |
| Cn1c(=O)n(-c2ccc(C(C)(C)C#N)cc2)c2c3cc(-c4cnc5ccccc5c4)ccc3ncc21 [Dactolisib (Tosylate)] (10 µM) | 3 | 1 | 0 | 0 | 0 | 0 | 0 | 0 | 4 | 0 |

| SMILES | number of time points (LMTK2) | number of time points (LYN) | number of time points (MAP2K1) | number of time points (MAP2K2) | number of time points (MAP4K2) | number of time points (MAPK1) | number of time points (MAPK4) | number of time points (MAPKAPK2) | number of time points (MKNK1) | number of time points (NTRK2) |
| --- | --- | --- | --- | --- | --- | --- | --- | --- | --- | --- |
| CNC(=O)c1cc(Oc2ccc(NC(=O)Nc3cc(C(C)(C)C)nn3-c3ccc4ncccc4c3)c(F)c2)ccn1 [Rebastinib] (2.5 µM) | 4 | 0 | 0 | 0 | 0 | 0 | 0 | 0 | 0 |  |
| CC(C)(C#N)c1ccc(N2C(=O)OCc3cnc4ccc(-c5cnc6ccccc6c5)cc4c32)cc1 (2.5 µM) | 0 | 0 | 0 | 0 | 0 | 0 | 0 | 0 | 0 | 0 |
| COc1ccc(F)c(F)c1C(=O)c1cnc(NC2CCN(S(C)(=O)=O)CC2)nc1N (2.5 µM) | 3 | 1 | 1 | 1 | 0 | 0 | 0 | 0 | 0 | 3 |
| c1cc(OCCN2CCCCC2)cc(-c2n[nH]c3ccc(-c4nnc[nH]4)cc23)c1 [CC-401 (hydrochloride)] (10 µM) | 0 | 0 | 0 | 0 | 0 | 0 | 0 | 0 | 0 |  |
| CN(C)CCOc1ccc(-c2nc(-c3ccncc3)c(-c3ccc4c(c3)CC/C4=N\O)[nH]2)cc1 (10 µM) | 0 | 0 | 0 | 0 | 0 | 0 | 0 | 0 | 1 | 0 |
| CCN(CCO)CCCOc1ccc2c(Nc3cc(CC(=O)Nc4cccc(F)c4)[nH]n3)ncnc2c1 [Barasertib-HQPA] (10 µM) | 0 | 0 | 0 | 0 | 0 | 0 | 0 | 0 | 0 | 0 |
| CN(C)C(=O)/C(C#N)=C/c1ccc(-c2nc3cnc4[nH]ccc4c3n2C2CCCCC2)o1 (10 µM) | 0 | 0 | 0 | 0 | 0 | 0 | 0 | 0 | 0 | 0 |
| O=C1NC(=NCc2cccs2)S/C1=C\c1ccc2ncccc2c1 (10 µM) | 0 | 0 | 0 | 0 | 0 | 0 | 0 | 0 | 0 | 0 |
| O=C(/C=C/c1ccc(O)c(O)c1)c1ccc(O)cc1O [Butein] (10 µM) | 2 | 0 | 0 | 0 | 0 | 0 | 0 | 0 | 4 | 1 |
| COc1cc2ncnc(Nc3cccc(Cl)c3F)c2cc1OC(=O)N1CCN(C)C[C@H]1C [Zorifertinib] (10 µM) | 0 | 0 | 0 | 0 | 0 | 0 | 0 | 0 | 0 | 0 |
| O=C(Nc1cc(C(F)(F)F)ccc1N1CCN(Cc2ccccn2)CC1)c1ccc(-c2ccncc2)o1 (10 µM) | 0 | 0 | 0 | 0 | 0 | 0 | 0 | 0 | 0 | 0 |
| COc1c(Cl)cc2c([nH]c3cnccc32)c1NC(=O)c1cccnc1C (10 µM) | 0 | 0 | 0 | 0 | 0 | 0 | 0 | 0 | 0 | 0 |
| NC(=O)c1ccc2nc(-c3ccc(Oc4ccc(Cl)cc4)cc3)[nH]c2c1 (10 µM) | 0 | 0 | 0 | 0 | 0 | 0 | 0 | 0 | 0 | 0 |
| Cc1nc(-c2cnc(NC(C)C)n(C)c2=O)ccc1Oc1ccnc(-c2cnn(C)c2)c1 (2.5 µM) | 0 | 0 | 0 | 0 | 0 | 0 | 0 | 0 | 1 | 0 |
| Cc1cc(N2CCOCC2)cc2[nH]c(-c3c(NC[C@@H](O)c4cccc(Cl)c4)cc[nH]c3=O)nc12 (10 µM) | 0 | 0 | 0 | 0 | 0 | 0 | 0 | 0 | 2 | 0 |
| CN1CCN(C2CCN(C(=O)Nc3cc(Oc4ccc(NC(=O)C5(C(=O)Nc6ccc(F)cc6)CC5)c(F)c4)ccn3)CC2)CC1 [Golvatinib] (2.5 µM) | 0 | 0 | 0 | 0 | 0 | 0 | 0 | 0 | 0 |  |
| O=c1c(O)c(-c2ccc(O)c(O)c2)oc2cc(O)cc(O)c12 [Quercetin (dihydrate)] (10 µM) | 0 | 0 | 0 | 0 | 0 | 0 | 0 | 0 | 1 | 0 |
| Cc1[nH]c(/C=C2\C(=O)Nc3ccc(S(=O)(=O)Cc4c(Cl)cccc4Cl)cc32)c(C)c1C(=O)N1CCC[C@@H]1CN1CCCC1 (2.5 µM) | 0 | 0 | 0 | 0 | 0 | 0 | 0 | 0 | 0 | 0 |
| Brc1c(Br)c(Br)c2n[nH]nc2c1Br (10 µM) | 0 | 0 | 0 | 0 | 0 | 0 | 0 | 0 | 0 | 0 |

Just number of time points (MAPK4), for some of the entries so far:
SMILES	number of time points (MAPK4)
CN(C)CCOc1ccc(-c2nc(-c3ccncc3)c(-c3ccc4c(c3)CC/C4=N\O)[nH]2)cc1 (10 µM)	0
CCN(CCO)CCCOc1ccc2c(Nc3cc(CC(=O)Nc4cccc(F)c4)[nH]n3)ncnc2c1 [Barasertib-HQPA] (10 µM)	0
CN(C)C(=O)/C(C#N)=C/c1ccc(-c2nc3cnc4[nH]ccc4c3n2C2CCCCC2)o1 (10 µM)	0
